From PMC5481773, “Structural insights into the function of ZRANB3 in replication stress response” (Nature Communications, 2017)

Target: T1, ZRANB3 HNH domain WT (human) (UniProt Q5FWF4)
T1 sequence (looked up): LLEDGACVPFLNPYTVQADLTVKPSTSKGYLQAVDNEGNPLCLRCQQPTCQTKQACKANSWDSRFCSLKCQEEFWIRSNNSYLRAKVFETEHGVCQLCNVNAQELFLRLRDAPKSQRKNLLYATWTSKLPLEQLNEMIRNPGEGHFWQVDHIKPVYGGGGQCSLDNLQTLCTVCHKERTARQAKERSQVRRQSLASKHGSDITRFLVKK
Test: EMSA
Conditions: 4 mM EDTA, 4-32 uM protein, EMSA: 50 mM Tris-HCl pH 7.5, 5% glycerol, 1 mM DTT, 0.1 mg/ml BSA, 1 nM DNA, 4 C, 30 min, 5% native PAGE in 0.5x TBE, recombinant protein, residues 871-1079, protein details: N-terminal His6-Trx (pNH-TrxT), label: 5' 32P on strand 1 (S7)

“CCTCGATCCTACCAACCAGATGACGCGCTGCTACGTGCTACCGGAAGTCG / CGACTTCCGGTAGCACGTAGCAGCGGCTCGCCACGAACTGCACTCTAGGC [EMSA splayed duplex]”: binds.

For at least one entry, the source does not settle the construct or the ends of the probe. At least one verdict was read from the data and is not stated in words by the source. Where a protein sequence is shown, tags need not be part of it.
